# Source: the supplement of paper PMC10849652
# Amino acid sequences for entries named in this document (tags omitted). A change or cut given only in a name is not applied to a line headed by its entry.
# UniProt P07686: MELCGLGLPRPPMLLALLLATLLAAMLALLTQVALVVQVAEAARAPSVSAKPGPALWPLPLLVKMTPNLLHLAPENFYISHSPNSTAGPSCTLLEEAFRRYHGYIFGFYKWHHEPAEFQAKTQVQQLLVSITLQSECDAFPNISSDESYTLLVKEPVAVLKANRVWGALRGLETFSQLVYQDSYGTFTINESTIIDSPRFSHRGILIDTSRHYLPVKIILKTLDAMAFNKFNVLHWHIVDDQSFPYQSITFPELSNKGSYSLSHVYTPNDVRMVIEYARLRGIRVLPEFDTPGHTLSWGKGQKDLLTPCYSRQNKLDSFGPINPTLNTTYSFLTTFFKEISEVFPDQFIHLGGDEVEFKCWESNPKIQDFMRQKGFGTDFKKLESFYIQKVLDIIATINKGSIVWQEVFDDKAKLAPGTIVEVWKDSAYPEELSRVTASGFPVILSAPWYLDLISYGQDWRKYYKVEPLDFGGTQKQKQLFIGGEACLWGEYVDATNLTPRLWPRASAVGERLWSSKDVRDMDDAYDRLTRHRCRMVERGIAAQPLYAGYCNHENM
# UniProt P16401, whole entry, looked up: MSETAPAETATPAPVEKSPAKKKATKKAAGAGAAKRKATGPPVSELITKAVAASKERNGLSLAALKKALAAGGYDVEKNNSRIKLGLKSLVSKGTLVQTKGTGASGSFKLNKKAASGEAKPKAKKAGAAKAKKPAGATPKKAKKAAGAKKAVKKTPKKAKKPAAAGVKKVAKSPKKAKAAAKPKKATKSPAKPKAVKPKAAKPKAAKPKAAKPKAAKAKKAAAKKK
# UniProt Q9BQS7: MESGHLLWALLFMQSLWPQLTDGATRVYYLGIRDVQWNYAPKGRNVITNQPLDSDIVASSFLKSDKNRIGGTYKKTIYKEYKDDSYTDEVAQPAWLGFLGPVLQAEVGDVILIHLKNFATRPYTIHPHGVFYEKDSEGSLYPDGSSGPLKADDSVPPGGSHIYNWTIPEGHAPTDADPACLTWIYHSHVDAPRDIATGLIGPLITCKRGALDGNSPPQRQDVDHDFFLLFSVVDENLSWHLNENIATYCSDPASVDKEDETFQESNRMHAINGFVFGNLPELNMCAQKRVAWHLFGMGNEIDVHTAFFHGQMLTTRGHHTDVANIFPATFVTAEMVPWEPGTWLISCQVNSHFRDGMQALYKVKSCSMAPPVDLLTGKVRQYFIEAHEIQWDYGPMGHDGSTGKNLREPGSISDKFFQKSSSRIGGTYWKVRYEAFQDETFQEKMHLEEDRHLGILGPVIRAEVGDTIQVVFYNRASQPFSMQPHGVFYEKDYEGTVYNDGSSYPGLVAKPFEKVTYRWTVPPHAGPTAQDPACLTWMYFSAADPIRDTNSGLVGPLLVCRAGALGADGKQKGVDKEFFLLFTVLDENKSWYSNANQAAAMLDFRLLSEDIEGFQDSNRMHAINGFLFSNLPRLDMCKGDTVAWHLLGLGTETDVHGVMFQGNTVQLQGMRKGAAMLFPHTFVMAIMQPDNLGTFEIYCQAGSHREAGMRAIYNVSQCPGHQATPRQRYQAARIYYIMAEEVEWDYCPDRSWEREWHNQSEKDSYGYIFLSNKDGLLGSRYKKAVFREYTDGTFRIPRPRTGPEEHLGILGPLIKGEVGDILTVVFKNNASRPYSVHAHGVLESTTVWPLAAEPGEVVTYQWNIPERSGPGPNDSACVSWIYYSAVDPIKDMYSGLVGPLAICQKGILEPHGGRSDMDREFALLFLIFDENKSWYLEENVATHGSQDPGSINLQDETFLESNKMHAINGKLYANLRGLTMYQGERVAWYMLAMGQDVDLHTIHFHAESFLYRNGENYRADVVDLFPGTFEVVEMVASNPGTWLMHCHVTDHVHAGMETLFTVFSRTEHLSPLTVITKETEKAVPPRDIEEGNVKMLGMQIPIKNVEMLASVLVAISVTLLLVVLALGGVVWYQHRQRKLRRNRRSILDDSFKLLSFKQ
# UniProt Q9BX10: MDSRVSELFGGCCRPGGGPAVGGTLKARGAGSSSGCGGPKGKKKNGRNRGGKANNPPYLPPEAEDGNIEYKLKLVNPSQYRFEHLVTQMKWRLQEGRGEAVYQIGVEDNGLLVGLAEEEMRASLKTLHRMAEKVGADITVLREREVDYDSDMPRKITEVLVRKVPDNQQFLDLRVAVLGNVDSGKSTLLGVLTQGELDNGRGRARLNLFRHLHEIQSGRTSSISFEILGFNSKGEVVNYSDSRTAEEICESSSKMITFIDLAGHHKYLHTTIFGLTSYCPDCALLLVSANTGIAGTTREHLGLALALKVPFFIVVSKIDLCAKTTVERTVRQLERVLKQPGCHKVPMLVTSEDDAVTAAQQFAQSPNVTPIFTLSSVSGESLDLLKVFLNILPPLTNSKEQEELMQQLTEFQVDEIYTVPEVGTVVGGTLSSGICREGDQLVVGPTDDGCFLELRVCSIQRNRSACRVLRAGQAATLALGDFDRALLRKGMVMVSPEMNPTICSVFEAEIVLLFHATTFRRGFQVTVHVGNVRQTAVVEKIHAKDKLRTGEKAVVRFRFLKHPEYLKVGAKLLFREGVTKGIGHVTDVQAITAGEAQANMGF
# UniProt P49841: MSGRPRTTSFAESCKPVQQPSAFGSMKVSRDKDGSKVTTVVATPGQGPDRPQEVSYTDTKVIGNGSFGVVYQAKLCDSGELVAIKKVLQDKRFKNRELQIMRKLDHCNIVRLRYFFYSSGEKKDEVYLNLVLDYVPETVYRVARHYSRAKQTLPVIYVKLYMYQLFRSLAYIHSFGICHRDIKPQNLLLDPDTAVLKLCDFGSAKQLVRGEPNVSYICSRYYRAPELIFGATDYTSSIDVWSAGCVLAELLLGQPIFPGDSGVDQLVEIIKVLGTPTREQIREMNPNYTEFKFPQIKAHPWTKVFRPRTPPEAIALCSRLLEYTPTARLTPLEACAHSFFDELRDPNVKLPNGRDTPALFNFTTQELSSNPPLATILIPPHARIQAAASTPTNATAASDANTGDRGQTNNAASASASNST
# UniProt Q4G148: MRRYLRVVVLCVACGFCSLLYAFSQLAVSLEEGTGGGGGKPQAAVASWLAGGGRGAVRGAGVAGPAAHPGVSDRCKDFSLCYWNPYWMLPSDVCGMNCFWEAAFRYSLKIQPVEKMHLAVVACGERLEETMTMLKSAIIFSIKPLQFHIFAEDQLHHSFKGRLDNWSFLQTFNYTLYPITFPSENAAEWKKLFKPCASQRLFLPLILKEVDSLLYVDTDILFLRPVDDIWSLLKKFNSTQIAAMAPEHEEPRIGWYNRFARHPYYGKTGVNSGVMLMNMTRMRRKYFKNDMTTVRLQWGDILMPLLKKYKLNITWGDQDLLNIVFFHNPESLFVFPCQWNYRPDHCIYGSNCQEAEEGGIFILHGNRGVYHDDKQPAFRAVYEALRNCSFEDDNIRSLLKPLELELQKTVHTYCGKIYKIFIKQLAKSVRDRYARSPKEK
# UniProt P06396, whole entry, looked up: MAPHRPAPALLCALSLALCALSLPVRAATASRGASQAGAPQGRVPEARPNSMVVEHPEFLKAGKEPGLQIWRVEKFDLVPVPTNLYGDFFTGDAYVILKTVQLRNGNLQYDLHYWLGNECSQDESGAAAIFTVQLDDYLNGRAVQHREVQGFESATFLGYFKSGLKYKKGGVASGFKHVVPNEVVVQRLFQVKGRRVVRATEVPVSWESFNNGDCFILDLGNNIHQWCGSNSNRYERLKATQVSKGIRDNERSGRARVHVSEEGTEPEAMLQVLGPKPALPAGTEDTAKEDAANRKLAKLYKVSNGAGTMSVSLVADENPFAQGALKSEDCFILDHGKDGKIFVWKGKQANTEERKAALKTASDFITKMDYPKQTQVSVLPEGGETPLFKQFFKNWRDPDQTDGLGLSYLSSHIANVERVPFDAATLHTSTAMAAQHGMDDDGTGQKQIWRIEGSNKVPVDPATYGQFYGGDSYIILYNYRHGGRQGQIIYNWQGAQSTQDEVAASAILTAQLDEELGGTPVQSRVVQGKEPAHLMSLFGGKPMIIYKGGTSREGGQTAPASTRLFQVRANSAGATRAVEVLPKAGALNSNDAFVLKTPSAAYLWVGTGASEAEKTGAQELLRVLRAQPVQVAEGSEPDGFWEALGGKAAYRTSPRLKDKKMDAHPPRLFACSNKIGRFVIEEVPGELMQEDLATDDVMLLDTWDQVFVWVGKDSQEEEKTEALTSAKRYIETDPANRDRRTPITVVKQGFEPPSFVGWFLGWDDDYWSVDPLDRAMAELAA
# UniProt P08236: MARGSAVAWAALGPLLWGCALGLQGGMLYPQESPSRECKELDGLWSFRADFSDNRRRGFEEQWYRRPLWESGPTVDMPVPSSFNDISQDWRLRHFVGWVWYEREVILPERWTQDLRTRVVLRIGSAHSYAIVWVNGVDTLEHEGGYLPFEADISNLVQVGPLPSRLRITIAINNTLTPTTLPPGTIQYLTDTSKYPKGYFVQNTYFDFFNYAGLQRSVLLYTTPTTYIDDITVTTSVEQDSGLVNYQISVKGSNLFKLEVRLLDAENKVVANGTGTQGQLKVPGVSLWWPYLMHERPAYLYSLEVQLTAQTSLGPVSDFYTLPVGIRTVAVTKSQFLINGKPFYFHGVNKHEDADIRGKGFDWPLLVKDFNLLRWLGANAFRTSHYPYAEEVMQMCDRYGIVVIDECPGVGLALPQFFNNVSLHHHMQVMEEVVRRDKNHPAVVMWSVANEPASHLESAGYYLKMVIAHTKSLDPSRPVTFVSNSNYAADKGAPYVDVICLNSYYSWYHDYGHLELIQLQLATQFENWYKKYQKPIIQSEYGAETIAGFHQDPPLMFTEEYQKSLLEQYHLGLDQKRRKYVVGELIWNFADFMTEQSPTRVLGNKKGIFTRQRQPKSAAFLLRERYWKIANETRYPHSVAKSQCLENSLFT
# UniProt P52657, whole entry, looked up: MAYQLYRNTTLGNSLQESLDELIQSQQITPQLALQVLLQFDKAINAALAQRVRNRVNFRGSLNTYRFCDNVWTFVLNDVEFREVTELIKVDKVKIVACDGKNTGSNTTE
# UniProt P16403, whole entry, looked up: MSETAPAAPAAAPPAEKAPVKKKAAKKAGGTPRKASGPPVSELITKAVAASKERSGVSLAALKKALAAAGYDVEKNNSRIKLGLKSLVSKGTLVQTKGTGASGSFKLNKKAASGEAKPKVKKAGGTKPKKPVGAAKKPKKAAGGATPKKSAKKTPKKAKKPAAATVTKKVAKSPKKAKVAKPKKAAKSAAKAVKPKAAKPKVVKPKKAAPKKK
# UniProt Q8IYD1, whole entry, looked up: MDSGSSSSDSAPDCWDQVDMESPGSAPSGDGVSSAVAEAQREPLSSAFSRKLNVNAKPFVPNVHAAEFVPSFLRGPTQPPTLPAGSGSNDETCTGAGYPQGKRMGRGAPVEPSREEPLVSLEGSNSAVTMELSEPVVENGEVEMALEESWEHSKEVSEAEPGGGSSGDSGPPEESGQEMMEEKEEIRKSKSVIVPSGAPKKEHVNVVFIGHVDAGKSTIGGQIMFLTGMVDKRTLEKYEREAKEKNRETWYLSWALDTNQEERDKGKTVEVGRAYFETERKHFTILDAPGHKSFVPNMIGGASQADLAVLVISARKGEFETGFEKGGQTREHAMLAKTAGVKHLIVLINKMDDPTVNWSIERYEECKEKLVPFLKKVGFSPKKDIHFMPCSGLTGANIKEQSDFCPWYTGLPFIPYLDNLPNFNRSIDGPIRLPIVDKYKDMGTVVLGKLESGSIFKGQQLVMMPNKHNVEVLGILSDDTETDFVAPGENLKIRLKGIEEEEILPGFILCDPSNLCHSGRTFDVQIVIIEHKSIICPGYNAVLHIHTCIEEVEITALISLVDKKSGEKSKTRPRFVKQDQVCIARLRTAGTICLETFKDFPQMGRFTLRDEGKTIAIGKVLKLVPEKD
# UniProt P78417: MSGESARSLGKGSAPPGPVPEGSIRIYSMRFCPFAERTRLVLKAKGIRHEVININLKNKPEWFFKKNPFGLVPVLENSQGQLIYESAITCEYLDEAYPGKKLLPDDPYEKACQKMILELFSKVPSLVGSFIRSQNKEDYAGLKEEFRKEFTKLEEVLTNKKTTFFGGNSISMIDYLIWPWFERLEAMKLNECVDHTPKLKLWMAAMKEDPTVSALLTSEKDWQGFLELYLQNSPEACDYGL
# The other results are listed elsewhere or left out. Residues, ends and D or L forms follow the SMILES beside them. *: point of attachment. Cbz = O=C(OCc1ccccc1)*
# Tests used:
# Test in all cases: log2 fold change, soluble protein after heating vs DMSO (PISA); higher = thermal stabilisation; K562 cells, 10 uM, 30 min; active = over 0.2 and 3.5 SD of the protein, either way, in both replicates (recomputed)
# IRAK-1-4 Inhibitor I = compound: C1COCCN1CCN2C3=CC=CC=C3N=C2NC(=O)C4=CC(=CC=C4)[N+](=O)[O-] [IRAK-1-4 Inhibitor I]
# How it was run: (§1)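 Soluble protein was quantified by TMTpro 16plex LC-MS/MS after channel sums were equalised. It was obtained as the supernatant after 21,000xg for 90 min from pooled aliquots of K562 cells (2×10^6 cells/mL, 10 μM compound, 30 min) heated for 3 min across 48°C-58°C and extracted in PBS with 0.5% NP-40 at 4°C. Thermal stability values are relative to control samples and come from duplicates. They are given as log2 fold changes.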
# ibrutinib = compound: C=CC(=O)N1CCC[C@@H](n2nc(-c3ccc(Oc4ccccc4)cc3)c3c(N)ncnc32)C1 [ibrutinib]
# How it was run: as §1
# [1] = compound: CC(=O)c1cnc2ccc(-c3cc(Cl)c(O)c(Cl)c3)nc2c1N[C@H]1CC[C@H](CN(C)C)CC1
# How it was run: as §1
# ralimetinib = compound: CC(C)(C)Cn1c(N)nc2ccc(-c3[nH]c(C(C)(C)C)nc3-c3ccc(F)cc3)nc21 [ralimetinib]
# How it was run: as §1
# [2] = compound: CC(C)(O)CC(=O)NCCn1ccc2ncnc(Nc3ccc(Oc4cccc(C(F)(F)F)c4)c(Cl)c3)c21
# How it was run: as §1
# [3] = compound: CC(C)C1=C2N=C(C=C(N2N=C1)NCC3=CC=CC=C3)NCCCCCCN
# How it was run: as §1
# [4] = compound: CC(C)C[C@@H](C=O)NC(=O)[C@H](CC(C)C)NC(=O)[C@H](CC(C)C)NC(=O)OCc1ccccc1
# How it was run: as §1
# pinometostat = compound: CC(C)N(C[C@H]1O[C@@H](n2cnc3c(N)ncnc32)[C@H](O)[C@@H]1O)[C@H]1C[C@@H](CCc2nc3cc(C(C)(C)C)ccc3[nH]2)C1 [pinometostat]
# How it was run: as §1
# [5] = compound: CC1=C(C(CC(=O)N1)C2=CC=C(C=C2)C(F)(F)F)C(=O)NC3=C(C=C4C(=C3)C=NN4)F
# How it was run: as §1
# [6] = compound: CC1=C(C2=C(C=C1)C(=O)C3=CC=CC=C3N2CCCN)C
# How it was run: as §1
# [7] = compound: CC1=C(C=C(C=C1)NC(=O)C2=CC(=CC=C2)C(C)(C)C#N)NC3=CC4=C(C=C3)N=CN(C4=O)C
# How it was run: as §1
# [8] = compound: CC1=C(C=C(C=C1)NC(=O)C2=CC(=CC=C2)N(C)C)NC(=O)C3=CC=C(C=C3)O
# How it was run: as §1
# [9] = compound: CC1=CC=C(C=C1)SC2=C3C=C(SC3=CN=C2)C(=O)N
# How it was run: as §1
# [10] = compound: CC1=NC(=CC=C1)C2=C(N=C(N2)C(C)(C)C)C3=CC4=NC=CN=C4C=C3
# How it was run: as §1
# Nexturastat A = compound: CCCCN(Cc1ccc(C(=O)NO)cc1)C(=O)Nc1ccccc1 [Nexturastat A]
# How it was run: as §1
# vemurafenib = compound: CCCS(=O)(=O)Nc1ccc(F)c(C(=O)c2c[nH]c3ncc(-c4ccc(Cl)cc4)cc23)c1F [vemurafenib]
# How it was run: as §1
# [11] = compound: CCCS(=O)(=O)Nc1ccc(F)c(C(=O)c2c[nH]c3ncc(Cl)cc23)c1F
# How it was run: as §1
# [12] = compound: CCCc1cc(C)[nH]c(=O)c1CNC(=O)c1cc(-c2ccnc(N3CCN(C)CC3)c2)cc2c1cnn2C(C)C
# How it was run: as §1
# givinostat = compound: CCN(CC)Cc1ccc2cc(COC(=O)Nc3ccc(C(=O)NO)cc3)ccc2c1 [givinostat]
# How it was run: as §1
# barasertib = compound: CCN(CCCOc1ccc2c(Nc3cc(CC(=O)Nc4cccc(F)c4)[nH]n3)ncnc2c1)CCOP(=O)(O)O [barasertib]
# How it was run: as §1
Target,log2 fold change (IRAK-1-4 Inhibitor I),log2 fold change (ibrutinib),log2 fold change [1],log2 fold change (ralimetinib),log2 fold change [2],log2 fold change [3],log2 fold change [4],log2 fold change (pinometostat),log2 fold change [5],log2 fold change [6],log2 fold change [7],log2 fold change [8],log2 fold change [9],log2 fold change [10],log2 fold change (Nexturastat A),log2 fold change (vemurafenib),log2 fold change [11],log2 fold change [12],log2 fold change (givinostat),log2 fold change (barasertib)
H4C1 (UniProt P62805),inactive: -0.184,inactive: 0.132,inactive: -0.023,inactive: 0.243,inactive: 0.046,inactive: -0.024,inactive: 0.251,inactive: 0.411,inactive: -0.051,inactive: 0.747,inactive: -0.183,inactive: 0.005,inactive: -0.145,inactive: -0.04,inactive: 0.772,inactive: -0.269,inactive: 0.558,inactive: 0.042,inactive: 0.411,inactive: -0.146
HEXB (UniProt P07686),inactive: 0.06,inactive: 0.004,inactive: 0.003,inactive: -0.068,inactive: -0.004,inactive: -0.14,inactive: 0.003,inactive: -0.025,,inactive: -0.03,inactive: 0,inactive: 0.029,inactive: 0.028,inactive: 0.022,inactive: -0.078,inactive: -0.003,inactive: -0.001,inactive: -0.019,inactive: -0.016,inactive: -0.015
HAUS6 (UniProt Q7Z4H7),inactive: -0.118,inactive: 0.047,inactive: 0,inactive: 0.116,inactive: 0.029,inactive: -0.119,inactive: 0.117,inactive: 0.283,inactive: 0.013,inactive: 0.133,inactive: 0.003,inactive: 0.008,inactive: 0.055,inactive: -0.084,inactive: 0.286,,inactive: -0.03,inactive: 0.167,inactive: 0.161,inactive: 0.128
H1-5 (UniProt P16401),inactive: -0.167,inactive: 0.02,inactive: 0.066,inactive: 0.24,inactive: 0.255,inactive: -0.109,inactive: 0.212,inactive: 0.357,inactive: 0.038,inactive: 0.718,inactive: 0.019,inactive: -0.002,inactive: -0.1,inactive: -0.151,inactive: 0.45,inactive: -0.178,inactive: -0.128,inactive: 0.204,inactive: 0.182,inactive: -0.117
HEPH isoform 3 (UniProt Q9BQS7),inactive: -0.002,inactive: 0.04,inactive: -0.044,inactive: -0.003,inactive: 0.029,inactive: -0.055,inactive: 0.091,inactive: 0.013,inactive: 0.005,inactive: -0.069,inactive: -0.012,inactive: 0.011,inactive: -0.018,inactive: -0.042,inactive: 0.11,inactive: -0.048,inactive: -0.047,inactive: 0.008,inactive: 0.013,inactive: 0.018
HAGH (UniProt Q16775),inactive: 0.04,inactive: 0.013,inactive: -0.037,inactive: -0.025,inactive: -0.017,inactive: 0.066,inactive: 0.015,inactive: 0.014,inactive: 0.021,inactive: -0.011,inactive: -0.047,inactive: -0.015,inactive: 0.008,inactive: -0.049,inactive: -0.019,inactive: -0.049,inactive: 0.013,inactive: -0.056,inactive: -0.129,inactive: 0.028
GTPBP2 (UniProt Q9BX10),inactive: -0.008,inactive: 0.039,inactive: -0.068,inactive: 0.107,inactive: -0.042,inactive: -0.042,inactive: 0.075,inactive: 0.176,inactive: -0.022,inactive: 0.1,inactive: 0.053,inactive: -0.029,inactive: -0.054,inactive: -0.042,inactive: 0.178,inactive: -0.049,inactive: -0.063,inactive: 0.04,inactive: 0.067,inactive: 0.022
GSK3B isoform 2 (UniProt P49841),inactive: 0.017,inactive: 0.019,inactive: 0.144,inactive: -0.005,inactive: -0.07,inactive: 0.004,inactive: -0.031,inactive: -0.022,,inactive: -0.017,inactive: 0.015,inactive: -0.022,inactive: 0.044,inactive: 0.034,inactive: 0.003,inactive: -0.008,inactive: -0.018,inactive: -0.066,inactive: -0.07,inactive: -0.017
GXYLT1 (UniProt Q4G148),inactive: -0.021,inactive: -0.204,inactive: -0.044,inactive: -0.009,inactive: -0.092,inactive: 0.03,inactive: -0.106,inactive: -0.14,inactive: -0.138,inactive: 0.126,,inactive: -0.124,inactive: 0.054,inactive: 0.379,inactive: -0.327,inactive: 0.142,inactive: 0.039,inactive: 0.072,inactive: 0.028,inactive: 0.04
GSN (UniProt P06396),inactive: 0.041,inactive: 0.119,inactive: 0.019,inactive: -0.047,inactive: 0.075,inactive: 0.068,inactive: 0.004,inactive: -0.069,inactive: 0.019,inactive: -0.01,inactive: -0.035,inactive: 0.123,inactive: 0.045,inactive: 0.054,inactive: -0.069,inactive: 0.055,inactive: -0.058,inactive: -0.223,inactive: -0.029,inactive: 0.018
GUSB (UniProt P08236),inactive: 0.037,inactive: -0.016,inactive: -0.075,inactive: -0.013,inactive: 0.011,inactive: 0.025,inactive: -0.005,inactive: -0.032,,inactive: -0.077,inactive: -0.013,inactive: -0.014,inactive: -0.027,inactive: -0.073,inactive: 0.277,inactive: 0.06,inactive: 0.03,inactive: -0.038,active: -0.501,inactive: -0.048
GTF2A2 (UniProt P52657),inactive: 0.013,inactive: -0.028,inactive: -0.002,inactive: -0.078,inactive: -0.026,inactive: 0.051,inactive: -0.019,inactive: -0.064,,active: -0.357,inactive: 0.009,inactive: -0.029,inactive: 0.052,inactive: 0.03,inactive: -0.091,inactive: -0.083,inactive: -0.017,inactive: -0.053,inactive: -0.044,inactive: 0.007
H1-2 (UniProt P16403),inactive: -0.132,inactive: 0.027,inactive: 0.051,inactive: 0.138,inactive: 0.161,inactive: -0.003,inactive: 0.073,inactive: 0.41,inactive: 0.022,inactive: 0.623,inactive: 0.069,inactive: -0.036,inactive: -0.072,inactive: -0.08,inactive: 0.54,inactive: -0.148,inactive: -0.118,inactive: 0.203,inactive: 0.149,inactive: -0.174
GSPT2 (UniProt Q8IYD1),inactive: -0.018,inactive: 0.032,inactive: -0.077,inactive: 0.052,inactive: 0.081,inactive: -0.006,inactive: 0.012,inactive: 0.035,inactive: -0.012,,inactive: 0.004,inactive: -0.052,inactive: 0.013,inactive: 0.004,inactive: -0.016,inactive: -0.012,inactive: 0,inactive: -0.087,inactive: -0.02,inactive: -0.038
GSTO1 (UniProt P78417),inactive: 0.073,inactive: -0.029,inactive: 0.006,inactive: 0.021,inactive: -0.029,inactive: 0.066,inactive: -0.045,inactive: -0.047,,inactive: 0.021,inactive: -0.031,inactive: 0.002,inactive: 0.03,inactive: 0.03,inactive: -0.121,inactive: 0.02,inactive: 0.017,inactive: 0.15,inactive: -0.043,inactive: 0.016

# For convenience, part of the list above.
Target,log2 fold change (IRAK-1-4 Inhibitor I),log2 fold change (ibrutinib),log2 fold change [1],log2 fold change (ralimetinib),log2 fold change [2],log2 fold change [3],log2 fold change [4],log2 fold change (pinometostat),log2 fold change [5],log2 fold change [6],log2 fold change [7],log2 fold change [8],log2 fold change [9],log2 fold change [10],log2 fold change (Nexturastat A),log2 fold change (vemurafenib),log2 fold change [11],log2 fold change [12],log2 fold change (givinostat),log2 fold change (barasertib)
HEPH isoform 3 (UniProt Q9BQS7),inactive: -0.002,inactive: 0.04,inactive: -0.044,inactive: -0.003,inactive: 0.029,inactive: -0.055,inactive: 0.091,inactive: 0.013,inactive: 0.005,inactive: -0.069,inactive: -0.012,inactive: 0.011,inactive: -0.018,inactive: -0.042,inactive: 0.11,inactive: -0.048,inactive: -0.047,inactive: 0.008,inactive: 0.013,inactive: 0.018
HAGH (UniProt Q16775),inactive: 0.04,inactive: 0.013,inactive: -0.037,inactive: -0.025,inactive: -0.017,inactive: 0.066,inactive: 0.015,inactive: 0.014,inactive: 0.021,inactive: -0.011,inactive: -0.047,inactive: -0.015,inactive: 0.008,inactive: -0.049,inactive: -0.019,inactive: -0.049,inactive: 0.013,inactive: -0.056,inactive: -0.129,inactive: 0.028
GTPBP2 (UniProt Q9BX10),inactive: -0.008,inactive: 0.039,inactive: -0.068,inactive: 0.107,inactive: -0.042,inactive: -0.042,inactive: 0.075,inactive: 0.176,inactive: -0.022,inactive: 0.1,inactive: 0.053,inactive: -0.029,inactive: -0.054,inactive: -0.042,inactive: 0.178,inactive: -0.049,inactive: -0.063,inactive: 0.04,inactive: 0.067,inactive: 0.022
